The record followed here is paper PMC9732331.

By UniProt entry, the sequences of proteins in these tests, tags left out. Where a name states a change or a piece, a line headed by the entry shows the natural chain unless it says otherwise.
UniProt Q9UM11: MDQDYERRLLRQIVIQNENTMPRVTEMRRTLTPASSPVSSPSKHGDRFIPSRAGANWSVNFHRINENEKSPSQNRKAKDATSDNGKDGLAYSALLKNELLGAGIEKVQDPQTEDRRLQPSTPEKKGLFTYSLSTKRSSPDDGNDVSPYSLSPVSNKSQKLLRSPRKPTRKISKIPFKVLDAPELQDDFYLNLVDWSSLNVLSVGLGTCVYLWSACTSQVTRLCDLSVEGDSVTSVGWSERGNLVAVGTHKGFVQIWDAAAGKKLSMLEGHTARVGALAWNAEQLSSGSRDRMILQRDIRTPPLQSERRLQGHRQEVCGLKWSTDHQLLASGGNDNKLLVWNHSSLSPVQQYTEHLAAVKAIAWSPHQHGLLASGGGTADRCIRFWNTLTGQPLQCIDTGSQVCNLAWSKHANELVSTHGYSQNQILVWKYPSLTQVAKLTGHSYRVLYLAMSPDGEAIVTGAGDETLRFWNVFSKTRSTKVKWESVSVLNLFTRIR
UniProt Q6J9G0: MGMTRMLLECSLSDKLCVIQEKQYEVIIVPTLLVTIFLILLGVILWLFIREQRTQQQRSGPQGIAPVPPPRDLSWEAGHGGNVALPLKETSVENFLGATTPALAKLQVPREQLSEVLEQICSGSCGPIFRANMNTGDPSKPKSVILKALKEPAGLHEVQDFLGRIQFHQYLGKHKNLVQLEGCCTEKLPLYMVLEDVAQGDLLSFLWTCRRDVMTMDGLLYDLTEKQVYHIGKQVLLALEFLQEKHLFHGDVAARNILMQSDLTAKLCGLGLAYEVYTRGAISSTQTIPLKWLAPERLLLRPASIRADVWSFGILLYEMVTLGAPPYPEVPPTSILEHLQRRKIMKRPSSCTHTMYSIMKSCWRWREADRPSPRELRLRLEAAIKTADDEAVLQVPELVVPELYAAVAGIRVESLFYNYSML

The test concerns the target FLAG-tagged CDH1 (UniProt Q9UM11). Nature of the test: co-IP; HEK293T cells co-transfected with FLAG-CDH1 and STYK1/NOK or its mutants or truncated forms, 10 μM MG132 for 4 h before harvesting; about 2000 μg lysate with anti-FLAG affinity gel at 4 °C overnight, washed 6 times with 1xPBS, immunoblot.

These are yes or no findings as the source states them, for the method shown. In cells and extracts the contact can be indirect. A result given as binding can be weak or reduced; the word gives no strength.

In the case of “STYK1/NOK D-box deleted mutant ΔD1 (from UniProt Q6J9G0)”, the binding result is “binds”.

For the substance “STYK1/NOK D-box deleted mutant ΔD3 (from UniProt Q6J9G0)”, the binding entry is “binds”.

“STYK1/NOK D-box deleted mutant ΔD2 (from UniProt Q6J9G0)”: the binding entry is on record as “binds”.

With “STYK1/NOK D-box deleted mutant ΔD5 (from UniProt Q6J9G0)”, the binding result is listed as “binds”.

Regarding “STYK1/NOK truncated form with both termini removed (kinase domain) (from UniProt Q6J9G0) (domain or fragment)”, the binding result is recorded as “binds”.

As for “STYK1/NOK D-box deleted mutant ΔD4 (from UniProt Q6J9G0)”, the binding entry is recorded as “binds”.
